Measured values taken from patent US20150216970A1 (Genentech, published 2015).
No constants are given. Whether binding was seen depends on the method and setting. Binding seen in cells or lysates may run through a third protein. Some entries that bind do so weakly or less than the wild type.

Sequences of proteins named here, by UniProt entry; tags and fusion partners are left off. Residues count along the entry.
UniProt P86176, residues 29-249: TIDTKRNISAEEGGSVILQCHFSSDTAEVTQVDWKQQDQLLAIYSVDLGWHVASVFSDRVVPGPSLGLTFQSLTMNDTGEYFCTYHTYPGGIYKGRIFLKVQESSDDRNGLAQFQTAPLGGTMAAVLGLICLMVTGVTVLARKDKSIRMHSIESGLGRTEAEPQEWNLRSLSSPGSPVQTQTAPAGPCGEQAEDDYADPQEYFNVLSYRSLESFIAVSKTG

Molecular target: T1, CD226, endogenous, on primary C57BL6/J mouse CD8+ T cells (mouse) (UniProt Q8K4F0)
T1 sequence (looked up): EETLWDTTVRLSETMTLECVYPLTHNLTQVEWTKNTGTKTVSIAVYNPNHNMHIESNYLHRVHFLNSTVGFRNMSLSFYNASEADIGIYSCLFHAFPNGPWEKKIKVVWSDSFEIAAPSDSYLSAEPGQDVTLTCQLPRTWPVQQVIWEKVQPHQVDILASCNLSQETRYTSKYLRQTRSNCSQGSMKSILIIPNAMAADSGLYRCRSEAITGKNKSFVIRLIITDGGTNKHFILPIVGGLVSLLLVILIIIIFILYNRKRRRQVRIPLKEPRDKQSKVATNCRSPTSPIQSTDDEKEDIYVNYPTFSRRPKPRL
Assay: co-immunoprecipitation from lysates of stimulated C57BL6/J CD8+ T cells (IP anti-TIGIT, probe anti-CD226)

TIGIT, endogenous, on primary C57BL6/J mouse CD8+ T cells (from UniProt P86176 29-249) (receptor)
binding: binds
